Out of some 320,000 compounds screened, about 22,000 (6.9%) were called active. Inconclusive results, whose numbers are uncertain, are shown with a selection of clear calls. Calls follow the shape of the dose curve; as a rule, active = well fitted inhibition curve with a large enough effect; inconclusive = small, poorly fitted or top-dose-only effect, or another doubt; inactive = no such curve, though single readings can be large or run the other way. A potency beside an inconclusive call is a rough fit, not a confirmed value.
Assay: Primary qHTS for delayed death inhibitors of the malarial parasite plastid, 96 hour incubation
Settings: P. falciparum luciferase reporter growth; series mostly up to 28.7 µM
In short: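 Delayed-death screen, second-generation endpoint: infected erythrocytes, 2% hematocrit, 0.05% parasitemia final; 96 hours at 37 C, 5% CO2; luciferase detection reagent; luminescence decrease equals reduced growth.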
Potency is read from the fitted curve at half-maximal effect.

Structure (SMILES)	Potency
CC(C)[C@H](NC(=O)N1CC(=O)Nc2ccccc21)C(=O)N1CCC[C@H]1C(=O)O	inactive
Cc1cc(N/N=C/c2ccc(O)c(C)c2O)nc(-c2ccccc2O)n1	inconclusive: 4.15 µM [inhibitor, single point]
C#CCOCCOCCOCCNc1nc(N2CCN(C(=O)C(Cc3cc4ccccc4[nH]3)n3cc(C(N)Cc4ccc(O)cc4)nn3)CC2)nc(N2CCN(C(=O)C(CCC(=O)O)n3cc(C(N)C(C)CC)nn3)CC2)n1 (centres undefined)	inconclusive: 10.4 µM [inhibitor, single point]
CCOC(=O)c1c(-c2ccc(OC)cc2)oc2ccc(OCC(N)=O)cc12	inactive
O=C(CSc1nnc(CNC(=O)c2c(F)cccc2Cl)o1)NCc1ccc(F)cc1	inconclusive: 18.5 µM [inhibitor, single point]
Cc1cc(-c2c(C)[nH]n(-c3ccccc3)c2=O)n(-c2ccccc2)n1	inactive
Cc1cccc(C)c1NC(=O)CC(NCCc1ccccc1)C(=O)O (centres undefined)	inconclusive: 18.5 µM [inhibitor, single point]
Nn1c(SCc2cc([N+](=O)[O-])cc3c2OCOC3)nnc1-c1cccnc1	inconclusive: 0.522 µM [inhibitor, full curve, poor fit]
O=Cc1c(NCCCN2CCCC2=O)c2ccccc2[nH]c1=O	inconclusive: 16.5 µM [inhibitor, single point]
CCN(CC)CCCNC(=O)CN1N=C(c2ccc(OC)cc2)CCC1=O	inactive
CN(CC(=O)Nc1ccc(Cl)c(Cl)c1)C(=O)C1CCCC1	active: 5.22 µM
O=C(C1CCCN(c2ncnc3c2nc2n3CCCCC2)C1)N1CCN(c2ccccc2)CC1 (centres undefined)	inconclusive: 18.5 µM [inhibitor, single point]
Cc1ccc(CNC(=O)c2cc(-c3ccccc3C)n(CC3CC(c4cccc([N+](=O)[O-])c4)=NO3)n2)cc1 (centres undefined)	inconclusive: 7.38 µM [inhibitor, partial curve, poor fit]
COc1ccc(-c2noc(CN(C)Cc3ccc(C)o3)n2)cc1	inactive
COc1ccc(N(CC(=O)N2CCc3ccccc3C2)S(C)(=O)=O)cc1	inactive
O=C(c1ccccc1)c1nc2ccccc2n(CCCn2c(=O)c(C(=O)c3ccccc3)nc3ccccc32)c1=O	inconclusive: 1.31 µM [inhibitor, full curve]
C=CCN(CC=C)C(=O)C(=O)c1ccn(-c2c(C)csc2C(=O)OC)c1	inconclusive: 9.28 µM [inhibitor, partial curve]
Oc1ccccc1CN(CCc1ccccc1)Cc1ccccc1	inconclusive: 18.5 µM [inhibitor, single point]
COc1cc(C(=O)N/N=C/c2ccc(OC(=O)c3cccc(C)c3)cc2)ccc1O	inconclusive: 4.65 µM [inhibitor, single point]
CCCn1c(C(O)c2ccc(C)cc2)nc2ccccc21 (centres undefined)	inconclusive: 9.28 µM [inhibitor, partial curve, poor fit]
O=C(NN1C(=O)C2C(C1=O)C1C=CC2C12CC2)c1ccncc1 (centres undefined)	inactive
CCOc1ccccc1OC(=O)CN1C(=O)c2ccccc2C1=O	inactive
Cc1c(C(C)CCCO)oc(=O)c2c1Oc1c(C)c(C(C)C[C@H](C)O)oc(=O)c1C2 (some centres undefined)	inconclusive: 18.5 µM [inhibitor, single point]

Structure (SMILES)	Potency
O=C(CCc1nc2ccccc2[nH]1)N1CCN(C(=O)c2ccco2)CC1	inconclusive: 18.5 µM [inhibitor, single point]
COc1ccc(NS(=O)(=O)c2cccc(C(=O)NNC(=O)c3cccc(NC(C)=O)c3)c2)cc1	inactive
C=CCNC(=O)c1cc(Cl)ccc1[N+](=O)[O-]	inconclusive: 18.5 µM [inhibitor, single point]
Cc1ccc(S(=O)(=O)Nc2ccc(Cl)cc2)cc1NC(=O)Cn1cnc2c1c(=O)n(C)c(=O)n2C	inconclusive: 0.738 µM [inhibitor, partial curve, poor fit]
O=C(COC(=O)Cn1[nH]c(=O)c2ccccc2c1=O)NNC(=O)c1ccccc1	inactive
COc1ccc(C(=O)OC(C)C(=O)NC2CCCCC2C)cc1S(=O)(=O)N1CCOCC1 (centres undefined)	inactive
COc1ccccc1NC(=O)C(=O)NCCC1CCCCN1S(=O)(=O)c1cccs1 (centres undefined)	inconclusive: 8.28 µM [inhibitor, single point]
Cc1ccccc1OCC(=O)NCC(=O)OCc1ccc(Br)cc1	inconclusive: 13.1 µM [inhibitor, single point]
CNC(=O)c1[nH]cnc1C(=O)Nc1cccc(Cl)c1	inactive
Cc1ccc(Cn2ccc(NC(=O)c3nn(C)cc3[N+](=O)[O-])n2)cc1	inactive
Cc1ccc(N=C2NC(=O)/C(=C/c3cccn3C)S2)cc1C	active: 13.1 µM
COc1ccc2[nH]cc(CCNC(=O)CCC3CCCCC3)c2c1	inconclusive: 11.7 µM [inhibitor, single point]
CCOc1ccc(S(=O)(=O)NCCC(=O)NCC(c2ccco2)N2CCCCC2)cc1 (centres undefined)	inconclusive: 10.4 µM [inhibitor, single point]
COCC1CCCCN1C(=O)c1cccc(OC2CCN(S(C)(=O)=O)CC2)c1 (centres undefined)	inconclusive: 14.7 µM [inhibitor, single point]
CCc1ccc(-c2cc(C)no2)cc1S(=O)(=O)N1CCN(c2ccccc2OC)CC1	inactive
Cc1ccc(N=Nc2c(C)[nH][nH]c2=O)c(C)c1	inconclusive: 13.1 µM [inhibitor, single point]
CCC(C)N1C(=O)NC(=O)C2(Cc3cc(C)ccc3N(C)C2)C1=O (centres undefined)	inconclusive: 18.5 µM [inhibitor, single point]
COc1cc(CNCCCN2CCOCC2)ccc1OCC(=O)Nc1cccc(C(F)(F)F)c1	inconclusive: 0.104 µM [inhibitor, full curve]
Cc1ccc2cc(CN(Cc3ccc4c(c3)OCO4)Cc3nnnn3Cc3ccco3)c(=O)[nH]c2c1C	inconclusive: 4.65 µM [inhibitor, partial curve]
CCOc1cccc(C2C(C(=O)c3cccs3)=C(O)C(=O)N2Cc2cccnc2)c1 (centres undefined)	inconclusive: 11.7 µM [inhibitor, partial curve]
Cc1nc(N2CCOCC2)c2c(C)c(C(=O)Nc3ccc(C(F)(F)F)cc3)sc2n1	inactive
O=C(NCCC(=O)N(CCc1ccccc1)Cc1ccccc1)c1ccccc1Cl	inconclusive: 9.28 µM [inhibitor, single point]
c1ccc(CN2C3=NCCCN3c3ccccc32)cc1	inactive

Structure (SMILES)	Potency
CCc1cc2ccccc2nc1SCC(=O)Nc1cc(OC)c(OC)cc1C(=O)O	inactive
Cc1cc(Br)ccc1NC(=S)N1CCOCC1	inactive
COc1ccc(Cl)cc1NS(=O)(=O)c1cccc(C(=O)NCC(c2ccco2)N2CCCC2)c1 (centres undefined)	inconclusive: 14.7 µM [inhibitor, partial curve, poor fit]
COc1ccc(Cl)cc1NC(=O)CSc1nnc(-c2ccco2)o1	inactive
O=c1[nH]c2ccccc2c(=O)n1-c1cccc(Cl)c1	inconclusive: 20.8 µM [inhibitor, partial curve, poor fit]
COc1ccc2nc(-c3ccccc3)[nH]c2c1	active: 11.7 µM
C#CCOCCOCCOCCNc1nc(N2CCN(C(=O)CCCCCCCCCCNC(=O)[C@@H](CCSC)n3cc(CCO)nn3)CC2)nc(N2CCN(C(=O)CCCCCCCCCCNC(=O)[C@@H]([C@H](C)O)n3cc(C)nn3)CC2)n1	active: 0.165 µM
COC(=O)N/N=C/c1cc(C)n(-c2ccc(F)cc2)c1C	inactive
CC(=O)Nc1ccc(/C(C)=N/NS(=O)(=O)c2ccc(C)cc2)cc1	inconclusive: 0.928 µM [inhibitor, partial curve, poor fit]
Cc1cc(=O)[nH]c2c1c(=O)[nH]n2C1CC(C)N(C)CC1C (centres undefined)	inactive
O=C(CSc1nnc(-c2ccncc2)n1Cc1ccco1)Nc1nccs1	active: 7.38 µM
O=C(NCCOc1ccc(F)cc1)C1CCC(=O)N(CCCN2CCCC2=O)C1 (centres undefined)	inconclusive: 2.33 µM [inhibitor, full curve]
CCN(CC(=O)Nc1ccccc1C(F)(F)F)C(=O)c1ccc(N2C(=O)CCC2=O)cc1	inactive
COc1cc(-c2nnc(-c3ccccc3)o2)cc(OC)c1OC	inconclusive: 18.5 µM [inhibitor, single point]
Cc1ccc(/C=N/NC(=O)CC(=O)NCc2cccnc2)cc1	inconclusive: 11.7 µM [inhibitor, single point]
CCc1cc(C(=O)N2CCN(S(=O)(=O)c3ccccc3F)CC2)sc1C	inconclusive: 16.5 µM [inhibitor, single point]
COc1ccc(-n2nnnc2SCC(=O)NC2CC2)cc1	inactive
CCc1cccc2c(C(=O)C(NC(C)CC)c3ccccc3)c[nH]c12 (centres undefined)	inconclusive: 10.4 µM [inhibitor, single point]
COc1ccc(C(=O)c2ccccc2Cl)cc1OC	inconclusive: 18.5 µM [inhibitor, single point]
Cc1cc(C(=O)NNc2ccc(C(C)C)cc2)n(C(C)(C)C)n1	inactive
NC(=S)Nn1c(CCC(=O)O)ccc1-c1ccccc1	inconclusive: 18.5 µM [inhibitor, single point]
O=C(NCc1nc2ccccc2[nH]1)C1=C[C@@H](C2CC2)C[C@@H](OCc2ccc(CO)cc2)O1	inconclusive: 18.5 µM [inhibitor, single point]
CCC(=O)Nc1ccc(S(=O)(=O)Nc2ncccn2)cc1	active: 9.28 µM

Molecules above containing two or more sulfur atoms (three):
Structure (SMILES)	Potency
COc1ccccc1NC(=O)C(=O)NCCC1CCCCN1S(=O)(=O)c1cccs1 (centres undefined)	inconclusive: 8.28 µM [inhibitor, single point]
O=C(CSc1nnc(-c2ccncc2)n1Cc1ccco1)Nc1nccs1	active: 7.38 µM
CCc1cc(C(=O)N2CCN(S(=O)(=O)c3ccccc3F)CC2)sc1C	inconclusive: 16.5 µM [inhibitor, single point]

From PubChem BioAssay AID504834 (National Center for Advancing Translational Sciences (NCATS), 2011)
